Measurements taken from the supplement of paper PMC4604168 (melanoma cell lines).
The other results are listed elsewhere or left out. Repeats are few or missing, and single values can be far off.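 Cells were imaged in 1,536-well plates, and nuclei stained with an antibody against cleaved PARP were counted against all DNA-stained nuclei to give the apoptosis fraction. Screening doses were chosen to leave most cells alive, and resting and induced cleaved-PARP levels differ strongly between cell lines.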

Legend:
Assay in all cases: cleaved PARP positive nuclei fraction relative to DMSO control; melanoma cells; higher = more apoptosis
Settings in all cases: library dose: low library concentration; 72 h
[1] = tested on: 501Mel
[2] = tested on: A101D
[3] = tested on: A2058
[4] = tested on: C32
[5] = tested on: CBRC008 (line from a melanoma biopsy)
[6] = tested on: CBRC014 (line from a melanoma biopsy)
[7] = tested on: CBRC016 (line from a melanoma biopsy)
[8] = tested on: CBRC017 (line from a melanoma biopsy)

Compound | cleaved PARP positive nuclei fraction [1] [%] | cleaved PARP positive nuclei fraction [2] [%] | cleaved PARP positive nuclei fraction [3] [%] | cleaved PARP positive nuclei fraction [4] [%] | cleaved PARP positive nuclei fraction [5] [%] | cleaved PARP positive nuclei fraction [6] [%] | cleaved PARP positive nuclei fraction [7] [%] | cleaved PARP positive nuclei fraction [8] [%]
Cn1cc(C2=C(c3cn(C4CCN(Cc5ccccn5)CC4)c4ccccc34)C(=O)NC2=O)c2ccccc21 [Enzastaurin] + c1cc(-c2cnn3cc(-c4ccc(OCCN5CCCCC5)cc4)cnc23)ccn1 [Dorsomorphin] (first compound 0.8 µM, partner dose 0.4 µM) | 129 | 10.3 | 109 | 60.1 | 154 | 114 | 39.9 | 85.4
Cn1cc(C2=C(c3cn(C4CCN(Cc5ccccn5)CC4)c4ccccc34)C(=O)NC2=O)c2ccccc21 [Enzastaurin] + COc1cc2ncnc(Nc3ccc(Oc4ccccc4)cc3)c2cc1OC [SrcI1] (first compound 0.8 µM, partner dose 2 µM) | 72.1 | 28.4 | 44.6 | 38.9 | 145 | 172 | 41.4 | 106
Cn1cc(C2=C(c3cn(C4CCN(Cc5ccccn5)CC4)c4ccccc34)C(=O)NC2=O)c2ccccc21 [Enzastaurin] + CCCCCCCCCCCC1=C(O)C(=O)C=C(O)C1=O [Embelin] (first compound 0.8 µM, partner dose 1.2 µM) | 36.6 | 27.6 | 61 | 82.7 | 104 | 95 | 61 | 85.1
C[C@]12O[C@H](C[C@]1(O)CO)n1c3ccccc3c3c4c(c5c6ccccc6n2c5c31)CNC4=O [Lestaurtinib] + Oc1nc(-c2ccc(C(F)(F)F)cc2)nc2c1CSCC2 [XAV939] (first compound 0.004 µM, partner dose 2 µM) | 146 | 38.4 | 39.8 | 80 | 45.8 | 96.4 | 86.5 | 83.5
C[C@@H](N)c1ccc(C(=O)Nc2ccnc3[nH]ccc23)cc1 + Cc1cc(SCc2sc(-c3ccc(C(F)(F)F)c(F)c3)nc2C)ccc1OCC(=O)O [GW0742] (first compound 0.4 µM, partner dose 2 µM) | 218 | 31.5 | 166 | 1650 | 65.2 | 50.7 | 170 | 87.8
Clc1ccc(Nc2nnc(Cc3ccncc3)c3ccccc23)cc1 [vatalanib] + C/C(O)=C(\C#N)C(=O)Nc1cc(Br)ccc1Br [LFM-A13] (first compound 2 µM, partner dose 2 µM) | 53.1 | 67.1 | 95.7 | 95.2 | 48.3 | 231 | 98.2 | 102
CCCCCCCCc1ccc(CCC(N)(CO)CO)cc1 [fingolimod] + O=C(Oc1ccc([N+](=O)[O-])cc1)N1CCC(C(O)(c2ccc3c(c2)OCO3)c2ccc3c(c2)OCO3)CC1 [JZL184] (first compound 2 µM, partner dose 1 µM) | 142 | 14.3 | 435 | 95.5 | 92.3 | 112 | 22.9 | 116
CN(c1ncccc1CNc1nc(Nc2ccc3c(c2)CC(=O)N3)ncc1C(F)(F)F)S(C)(=O)=O + O=C(Oc1ccc([N+](=O)[O-])cc1)N1CCC(C(O)(c2ccc3c(c2)OCO3)c2ccc3c(c2)OCO3)CC1 [JZL184] (first compound 0.08 µM, partner dose 1 µM) | 158 | 36.4 | 96 | 339 | 69.9 | 101 | 44.5 | 87
CC(=O)c1c(C)c2cnc(Nc3ccc(N4CCNCC4)cn3)nc2n(C2CCCC2)c1=O [palbociclib] + Cc1cc(SCc2sc(-c3ccc(C(F)(F)F)c(F)c3)nc2C)ccc1OCC(=O)O [GW0742] (first compound 0.04 µM, partner dose 2 µM) | 129 | 20.4 | 64.1 | 46.6 | 34.6 | 125 | 82.8 | 93.9
C[C@]12O[C@H](C[C@]1(O)CO)n1c3ccccc3c3c4c(c5c6ccccc6n2c5c31)CNC4=O [Lestaurtinib] + c1cc(-c2cnn3cc(-c4ccc(OCCN5CCCCC5)cc4)cnc23)ccn1 [Dorsomorphin] (first compound 0.004 µM, partner dose 0.4 µM) | 43.3 | 22.3 | 62 | 63.5 | 112 | 97.4 | 37.7 | 95.4
Cn1cc(C2=C(c3cn(C4CCN(Cc5ccccn5)CC4)c4ccccc34)C(=O)NC2=O)c2ccccc21 [Enzastaurin] + O=C(O)C(=O)Nc1sc2c(c1C(=O)O)CCNC2 [TCS401] (first compound 0.8 µM, partner dose 1.66667 µM) | 115 | 46.8 | 324 | 112 | 192 | 93.4 | 35.4 | 76.1
Clc1ccc(Nc2nnc(Cc3ccncc3)c3ccccc23)cc1 [vatalanib] + O=C(Oc1ccc([N+](=O)[O-])cc1)N1CCC(C(O)(c2ccc3c(c2)OCO3)c2ccc3c(c2)OCO3)CC1 [JZL184] (first compound 2 µM, partner dose 1 µM) | 53.1 | 107 | 128 | 91.1 | 164 | 110 | 138 | 115
O=C(O)[C@@H]1[O][Sb](=[O])([O][Sb]2(=[O])[O][C@H]([C@H](O)CO)[C@H](O)[C@H](C(=O)O)[O]2)[O][C@H]([C@H](O)CO)[C@@H]1O (stereo partly specified) [stibogluconate] + C/C(O)=C(\C#N)C(=O)Nc1cc(Br)ccc1Br [LFM-A13] (first compound 2 µM, partner dose 2 µM) | 51.8 | 25.5 | 91.9 | 84.2 | 114 | 111 | 20.9 | 93.8
C[C@]1(O)C[C@@H](c2nc(-c3ccc4ccc(-c5ccccc5)nc4c3)c3c(N)nccn32)C1 + O=C(Oc1ccc([N+](=O)[O-])cc1)N1CCC(C(O)(c2ccc3c(c2)OCO3)c2ccc3c(c2)OCO3)CC1 [JZL184] (first compound 0.4 µM, partner dose 1 µM) | 276 | 22.5 | 137 | 77.9 | 113 | 103 | 82.9 | 95.6
CC1(C)CCC(c2ccc(Cl)cc2)=C(CN2CCN(c3ccc(C(=O)NS(=O)(=O)c4ccc(N[C@H](CCN5CCOCC5)CSc5ccccc5)c(S(=O)(=O)C(F)(F)F)c4)cc3)CC2)C1 + O=C(Oc1ccc([N+](=O)[O-])cc1)N1CCC(C(O)(c2ccc3c(c2)OCO3)c2ccc3c(c2)OCO3)CC1 [JZL184] (first compound 0.4 µM, partner dose 1 µM) | 67 | 79.9 | 73.6 | 409 | 337 | 375 | 1420 | 462
Nc1nc(F)nc2c1ncn2[C@@H]1O[C@H](CO)[C@@H](O)[C@@H]1O [fludarabine] + O=C(Oc1ccc([N+](=O)[O-])cc1)N1CCC(C(O)(c2ccc3c(c2)OCO3)c2ccc3c(c2)OCO3)CC1 [JZL184] (first compound 0.2 µM, partner dose 1 µM) | 2250 | 9.97 | 181 | 32.8 | 315 | 93.2 | 122 | 90.4
C[C@@H](N)c1ccc(C(=O)Nc2ccnc3[nH]ccc23)cc1 + C/C(O)=C(\C#N)C(=O)Nc1cc(Br)ccc1Br [LFM-A13] (first compound 0.4 µM, partner dose 2 µM) | 52.2 | 22.8 | 173 | 74.5 | 89.7 | 134 | 37.6 | 100
OCc1c[nH]c2ccccc12 [Indole-3-carbinol] + O=C(Oc1ccc([N+](=O)[O-])cc1)N1CCC(C(O)(c2ccc3c(c2)OCO3)c2ccc3c(c2)OCO3)CC1 [JZL184] (first compound 0.8 µM, partner dose 1 µM) | 90.5 | 18.2 | 65.7 | 36.2 | 89.2 | 101 | 45.4 | 71.1
Cc1ccc(Nc2nccc(N(C)c3ccc4c(C)n(C)nc4c3)n2)cc1S(N)(=O)=O [Pazopanib] + O=C(Oc1ccc([N+](=O)[O-])cc1)N1CCC(C(O)(c2ccc3c(c2)OCO3)c2ccc3c(c2)OCO3)CC1 [JZL184] (first compound 0.4 µM, partner dose 1 µM) | 65 | 61.6 | 88.8 | 104 | 410 | 120 | 61.4 | 88.7
Nc1nc(F)nc2c1ncn2[C@@H]1O[C@H](CO)[C@@H](O)[C@@H]1O [fludarabine] + Cc1cc(SCc2sc(-c3ccc(C(F)(F)F)c(F)c3)nc2C)ccc1OCC(=O)O [GW0742] (first compound 0.2 µM, partner dose 2 µM) | 1150 | 29.7 | 16.9 | 50.9 | 57.9 | 96 | 107 | 143
C=CCNC1=C2C[C@@H](C)C[C@H](OC)[C@H](O)[C@@H](C)/C=C(\C)[C@H](OC(N)=O)[C@@H](OC)/C=C\C=C(/C)C(=O)NC(=CC1=O)C2=O [Tanespimycin] + Cc1cc(SCc2sc(-c3ccc(C(F)(F)F)c(F)c3)nc2C)ccc1OCC(=O)O [GW0742] (first compound 0.002 µM, partner dose 2 µM) | 83.1 | 35.8 | 58.1 | 40.8 | 30.5 | 92.5 | 95.1 | 426
CCN(CC)CCNC(=O)c1c(C)[nH]c(/C=C2\C(=O)Nc3ccc(F)cc32)c1C [sunitinib] + O=C(Oc1ccc([N+](=O)[O-])cc1)N1CCC(C(O)(c2ccc3c(c2)OCO3)c2ccc3c(c2)OCO3)CC1 [JZL184] (first compound 0.4 µM, partner dose 1 µM) | 78.2 | 73.1 | 45.2 | 39.8 | 160 | 89.5 | 67.6 | 102

Part of the list above, as labelled records.
C[C@@H](N)c1ccc(C(=O)Nc2ccnc3[nH]ccc23)cc1 + Cc1cc(SCc2sc(-c3ccc(C(F)(F)F)c(F)c3)nc2C)ccc1OCC(=O)O [GW0742] (first compound 0.4 µM, partner dose 2 µM)
  cleaved PARP positive nuclei fraction [1] [%]: 218
  cleaved PARP positive nuclei fraction [2] [%]: 31.5
  cleaved PARP positive nuclei fraction [3] [%]: 166
  cleaved PARP positive nuclei fraction [4] [%]: 1650
  cleaved PARP positive nuclei fraction [5] [%]: 65.2
  cleaved PARP positive nuclei fraction [6] [%]: 50.7
  cleaved PARP positive nuclei fraction [7] [%]: 170
  cleaved PARP positive nuclei fraction [8] [%]: 87.8
C[C@]12O[C@H](C[C@]1(O)CO)n1c3ccccc3c3c4c(c5c6ccccc6n2c5c31)CNC4=O [Lestaurtinib] + c1cc(-c2cnn3cc(-c4ccc(OCCN5CCCCC5)cc4)cnc23)ccn1 [Dorsomorphin] (first compound 0.004 µM, partner dose 0.4 µM)
  cleaved PARP positive nuclei fraction [1] [%]: 43.3
  cleaved PARP positive nuclei fraction [2] [%]: 22.3
  cleaved PARP positive nuclei fraction [3] [%]: 62
  cleaved PARP positive nuclei fraction [4] [%]: 63.5
  cleaved PARP positive nuclei fraction [5] [%]: 112
  cleaved PARP positive nuclei fraction [6] [%]: 97.4
  cleaved PARP positive nuclei fraction [7] [%]: 37.7
  cleaved PARP positive nuclei fraction [8] [%]: 95.4
